Data reported in paper PMC9298260 (Angewandte Chemie (International Ed. in English), 2021).

Assay: general procedure: Fmoc solid-phase peptide synthesis; Tentagel S RAM (0.24 mmol/g); Rink Amide AM LL (0.26 mmol/g); Fmoc-Xaa-Wang LL preloaded resins (0.32 mmol/g); OxymaPure/DIC
Conditions: for isolated yield / isolated mass: whole synthesis; for isolated yield: scale of the general procedure 300 mg of resin (manual)

Substance | isolated yield (trifluoroacetate salt, run 1) | isolated yield (trifluoroacetate salt, run 2) | isolated yield (trifluoroacetate salt) | also measured
(KYA)4(KEA)2KKKA-OH | 39% | 39.2% |  | 
(AcAKA)8(KYEK)4(KEKA)2KAKY-OH | 9% | 8.7% |  | 
(KAEKAYA)4(KEKYAKA)2KEKYKA-NH2 |  |  | 25.6% | isolated mass (trifluoroacetate salt, run 1): 211.0 mg
(AcKA)4(KEYA)2KKAK-OH | 10% | 9.7% |  | 
(KA)4(KEYA)2KKAK-OH | 20% | 20.3% |  | isolated mass (trifluoroacetate salt, run 1): 25.8 mg
(KA)4(KAYE)2KK-OH | 35% | 34.8% |  | 
(K)4(KAYAEY)2KAKAEYA-NH2 |  |  | 43.5% | 
(AK)8(KAKAKY)4(KAKEYEY)2KAKEYEY-NH2 |  |  | 5.8% | 
(KAK)4(KEKA)2 KAKEAYCA‐NH2 |  |  | 14.1% | 
(AKA)8(KYEK)4(KEKA)2KAKY-OH | 9.4% |  |  | isolated yield (trifluoroacetate salt, anie202113562-tbl-0001 r7): 9%
(ClAcAKE)4(KKAY)2KYKY-NH2 | 7% | 6.7% |  | 
(ClAcKAE)4(KAEK)2KYYA-OH |  |  | 33.8% | 
(AcAKA)4(KEK)2KYEY-OH |  |  | 21% | 
(AcAYK)4(KE)2KKAA-OH |  |  | 28.4% | 
(AK)8(KAK)4(KEKA)2 KAKEAYCA‐NH2 |  |  | 23.2% | 
(FumAKA)4(KEY)2KYKK-NH2 |  |  | 23.6% | 
(AK)4(KKYE)2KAAA-OH | 10% | 9.6% |  | 
(ka)8(kkake)4(kykaka)2 kaykka‐OH |  |  | 16.7% | 
(KA)8(KAK)4(KEKA)2KAKEAYCA-NH2 |  |  |  | isolated yield (TFA salt): 7.7%
(ClAcK)4(KAYE)2KAKYAEA-NH2) |  |  | 46.1% | 

Substance | isolated yield (trifluoroacetate salt, run 1) | isolated yield (trifluoroacetate salt, run 2) | isolated yield (trifluoroacetate salt) | also measured
(AcKAE)4(KAEK)2KYYA-OH |  |  | 34.1% | isolated mass (trifluoroacetate salt, run 1): 4.1 mg
(AcAKE)4(KAYA)2KKKK-NH2 | 13% | 12.5% |  | 
(AcAK)4(KKYE)2KAAA-OH | 9% | 8.9% |  | 
(ClAcKA)4(KEYA)2KKAK-OH |  |  | 8% | 
(KAE)4(KAEK)2KYYA-OH |  |  | 30.0% | 
(AKA)4(KEK)2KYEY-OH | 26% | 26.4% |  | 
(KA)8(KKAKE)4(KYKAKA)2KAYKKA-OH |  |  | 9.0% | 
(ClAcKYA)4(KEA)2KKKA-OH | 31% | 30.5% |  | 
(AcAKA)4(KKEY)2KE-OH |  |  | 31.1% | 
(ClAcAKA)8(KYEK)4(KEKA)2KAKY-OH | 9% | 8.6% |  | 
(AKE)4(KAYA)2KKKK-NH2 | 11% | 11.4% |  | 
(AcKAA)4(KYYE)2KAY-NH2 | 30% | 29.5% |  | 
(AKK)4(KYEK)2KKEA-NH2 |  |  | 49.3% | 
(AYK)4(KE)2KKAA-OH |  |  | 28.4% | 
(AcKAK)4(KAEY)2KAEA-OH | 2% | 2.3% |  | 
(KA)8(KKAKE)4(KYKAKA)2 KAYKKA‐OH |  |  | 15.6% | 
(KA)8(KAK)4(KEKA)2 KAKEAYC(Fl)A‐NH2 |  |  |  | conjugation yield (conjugation step, trifluoroacetate salt): 40.6%
(AKE)4(KKAY)2KYKY-NH2 |  |  | 18.6% | 
(AcAKE)4(KKAY)2KYKY-NH2 |  |  | 27.9% | 
(KA)8(KKKAK)4(KEKA)2 KAKEAYCA‐NH2 |  |  | 8.6% | 

Substance | isolated yield (trifluoroacetate salt, run 1) | isolated yield (trifluoroacetate salt, run 2) | isolated yield (trifluoroacetate salt) | also measured
(ClAcK)4(KEAKAKEY)2KAKEYEY-OH |  |  | 22.8% | 
(KAA)4(KEY)2KAKEYEYA-NH2 |  |  | 41.1% | 
(AcAKA)4(KEY)2KYKK-NH2 | 49% | 49.3% |  | 
(FumKA)8(KAK)4(KEKA)2KAKEAYCA-NH2 |  |  | 22.9% | 
(FumAKE)4(KAYA)2KKKK-NH2 | 11% | 23.6% |  | 
(AcKYA)4(KEA)2KKKA-OH | 43% | 42.7% |  | 
(AKA)4(KKEY)2KE-OH |  |  | 17.6% | 
(KAA)4(KEKA)2KEKA-NH2 |  |  | 49.3% | 
(FumKA)8(KKKAK)4(KEKA)2 KAKEAYCA‐NH2 |  |  | 8.3% | 
(AcKA)8(KKKAK)4(KEKA)2 KAKEAYCA‐NH2 |  |  | 9.4% | 
(AcKA)4(KAYE)2KK-OH | 18% | 17.6% |  | isolated mass (trifluoroacetate salt, run 1): 23.6 mg
(FumKA)8(KKAKE)4(KYKAKA)2KAYKKA-OH |  |  | 18.1% | 
(AcKA)8(KAK)4(KEKA)2KAKEAYCA-NH2 |  |  | 22.8% | 
(KA)8(KAK)4(KEKA)2 KAKEAYCA‐NH2 |  |  | 7.6% | 
(ka)8(kak)4(keka)2 kakeayca‐NH2 |  |  | 18.3% | 
(AcKA)8(KKAKE)4(KYKAKA)2KAYKKA-OH |  |  | 19.9% | 
(ClAcAKA)4(KEK)2KYEY-OH | 8% | 8.2% |  | 
(KYA)4(KAE)2KAEYKCA-NH2 |  |  | 29.5% | isolated mass (trifluoroacetate salt, run 1): 127.7 mg
(KK)8(KAK)4(KEKA)2 KAKEAYCA‐NH2 |  |  | 18.9% | 
